Assay results reported in PubChem BioAssay AID1259354 (Paczesny and Yang Labs, IUPUI and University of Michigan, 2018).
In all, about 78,000 compounds went through this assay and about 1,800 (2.3%) were called active. This list was built around the results that the source calls inconclusive (neither active nor inactive); the mix of calls is not that of the screen. No stated cut-off is given here; in the data, active means inhibition above about 30%; inconclusive means mostly about 10% to 28%; inactive means weaker than that.

The chains behind the UniProt entries cited, without tags or fusion partners. Where a name states a change or a piece, a line headed by the entry shows the natural chain unless it says otherwise.
UniProt Q01638: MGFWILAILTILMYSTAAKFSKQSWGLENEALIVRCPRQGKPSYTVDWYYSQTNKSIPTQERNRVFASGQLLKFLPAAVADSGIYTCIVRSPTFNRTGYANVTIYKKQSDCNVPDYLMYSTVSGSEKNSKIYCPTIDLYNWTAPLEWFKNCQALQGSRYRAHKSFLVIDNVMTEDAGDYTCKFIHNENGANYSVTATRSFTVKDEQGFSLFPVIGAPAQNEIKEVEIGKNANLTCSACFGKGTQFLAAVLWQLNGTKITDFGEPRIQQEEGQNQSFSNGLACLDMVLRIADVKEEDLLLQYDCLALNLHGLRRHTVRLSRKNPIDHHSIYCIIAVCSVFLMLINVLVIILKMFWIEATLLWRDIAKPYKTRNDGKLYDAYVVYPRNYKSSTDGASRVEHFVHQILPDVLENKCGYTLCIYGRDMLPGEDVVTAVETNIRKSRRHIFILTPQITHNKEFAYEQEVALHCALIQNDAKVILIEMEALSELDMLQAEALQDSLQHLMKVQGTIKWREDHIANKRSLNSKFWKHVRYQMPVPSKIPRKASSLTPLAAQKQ

biological target: Interleukin-1 receptor-like 1 (Homo sapiens) (UniProt Q01638); assay: inhibitors of human ST2 (IL1RL1) binding to IL-33, primary screen, biochemical, AlphaLISA (AID 1259354); details: AlphaLISA ST2-Fc/biotin-IL-33 interaction, 1 h; at 17 µM, hits give high values

| Compound | inhibition |
| --- | --- |
| COc1ccccc1N1CCN(C[C@H]2CN3CC[C@H]2C[C@@H]3CNC(=O)Nc2cccc(SC)c2)CC1 | inconclusive: 11% |
| O=C(c1cnccn1)N1C[C@@H]2C[C@H](C1)c1c(-c3ccccc3)ccc(=O)n1C2 | inconclusive: 11% |
| O=[N+]([O-])c1cccc(CN2CCN(c3ccc(F)cc3)CC2)c1 | inconclusive: 28% |
| CCCN1CCC[C@@H](c2cccc(O)c2)C1 | inconclusive: 10% |
| Cc1cccc(N2CCN(Cc3ccc(Cl)cc3)CC2)c1C | inconclusive: 13% |
| COc1ccc(CN2CCN(Cc3ccccc3)CC2)cc1Br | inactive |
| Cc1nc(-c2ccc(N(C)C)cc2)cc([C@H]2CN3CC[C@H]2C[C@@H]3CNC(=S)Nc2ccc(F)cc2)n1 | inactive |
| COc1ccc(-c2ccc(=O)n3c2[C@@H]2C[C@@H](CN(C(=O)Nc4ccc(C)cc4)C2)C3)cc1 | inactive |
| O=c1c2ccccc2nc(/C=C/c2ccc([N+](=O)[O-])cc2)n1-c1cccnc1 | inconclusive: 12% |
| CCn1ncc(C(=O)N2C[C@H]3CC[C@@H](C2)N3)c1C | inconclusive: 19% |
| CC(=O)c1ccc(NC(=O)NC[C@H]2C[C@@H]3CCN2C[C@@H]3c2cc(-c3cccs3)nc(C)n2)cc1 | inconclusive: 15% |
| CC(=O)NCCNC(=O)[C@H]1CN2CCC1C[C@@H]2Cn1cc(CN(C)Cc2ccccc2)nn1 (some centres not stated) | inconclusive: 19% |
| C=C[C@H]1CN2CC[C@H]1C[C@@H]2CNC(=O)Nc1cccc(C(F)(F)F)c1 | inconclusive: 12% |
| Clc1ccccc1CN1CCN(Cc2ccc3c(c2)OCO3)CC1 | inactive |
| C=CCOc1ccc(C2SCC(=O)Nc3c2c(=O)[nH]n3C(C)CC)cc1 (configuration not stated) | inconclusive: 25% |
| CC(=O)NCCNC(=O)[C@H]1CN2CC[C@H]1C[C@@H]2Cn1cc(CN(C)C)nn1 | inactive |
| Cc1ccccc1N1CCN(Cc2ccc([N+](=O)[O-])cc2)CC1 | inconclusive: 21% |
| c1ccc(CNc2c3c(nc4ccccc24)CCC3)cc1 | inconclusive: 19% |
| Fc1cccc(CN2CCN(Cc3ccccc3)CC2)c1 | inconclusive: 12% |
| COc1ccc(-c2cc([C@H]3CN4CC[C@H]3C[C@@H]4CNC(=S)NCC(C)C)n(C)n2)cc1 | inactive |
| C[C@@H]1CCC/C=C/[C@H]2C[C@@H](O)C[C@@H]2[C@@H](O)/C=C/C(=O)O1 | inconclusive: 12% |
| COC(=O)C1(C)CCC(O)C2(C)c3c(O)cc(C(C)C)cc3C(O)C(OC(C)=O)C12 (configuration not stated) | inconclusive: 13% |

5 entries drawn at random from the list so far, as already listed:

| Compound | inhibition |
| --- | --- |
| COC(=O)C1(C)CCC(O)C2(C)c3c(O)cc(C(C)C)cc3C(O)C(OC(C)=O)C12 (configuration not stated) | inconclusive: 13% |
| COc1ccccc1N1CCN(C[C@H]2CN3CC[C@H]2C[C@@H]3CNC(=O)Nc2cccc(SC)c2)CC1 | inconclusive: 11% |
| C[C@@H]1CCC/C=C/[C@H]2C[C@@H](O)C[C@@H]2[C@@H](O)/C=C/C(=O)O1 | inconclusive: 12% |
| CC(=O)c1ccc(NC(=O)NC[C@H]2C[C@@H]3CCN2C[C@@H]3c2cc(-c3cccs3)nc(C)n2)cc1 | inconclusive: 15% |
| COc1ccc(CN2CCN(Cc3ccccc3)CC2)cc1Br | inactive |

Later entries

| Compound | inhibition |
| --- | --- |
| O=[N+]([O-])c1ccc(N2CCCC2)c2ncccc12 | inconclusive: 27% |
| Cn1nc(-c2cccs2)cc1[C@H]1CN2CC[C@H]1C[C@@H]2CNC(=O)COc1ccccc1 | inconclusive: 12% |
| Cc1cccc(-n2c(/C=C3\C(=O)Nc4ccccc43)nc3ccccc3c2=O)c1 | inactive |
| CC12CN3CC(C)(CN(C1)C31CCSCC1)C2=O | inconclusive: 10% |
| O=C(O)c1cccc2c1NC(C(=O)O)C1CC(Sc3ccccc3[N+](=O)[O-])C(Cl)C21 (configuration not stated) | active: 96% |
| C=C[C@H]1CN2CC[C@H]1C[C@@H]2CNS(=O)(=O)c1cccc(F)c1 | inconclusive: 13% |
| O=[N+]([O-])c1cc(F)c(N2CCCCC2)cc1Br | active: 42% |
| O=C(c1cccs1)N1C[C@@H]2C[C@H](C1)c1c(-c3ccc4ccccc4c3)ccc(=O)n1C2 | inconclusive: 18% |
| CC(C)Oc1cccc(C(=O)C2CCCN(CC(=O)NC3CC3)C2)c1 (configuration not stated) | inactive |
| O=C(NCc1ccc2c(c1)OCO2)[C@H]1CN2CCC1C[C@@H]2Cn1cc(CCO)nn1 (some centres not stated) | inconclusive: 13% |
| O[C@H]1[C@H](NCc2ccccn2)[C@H]2CO[C@H](O2)[C@@H]1N1CCOCC1 | inconclusive: 13% |
| COc1ccc2c(CCN)c[nH]c2c1 | inactive |
| CC(=O)Nc1ccc(NC(=O)c2cccn(Cc3cc(C)ccc3C)c2=O)cc1 | inconclusive: 12% |
| CC(=O)c1ccc(C(=O)N2C[C@H](c3ccccc3)[C@@H]3[C@H]2C2CCN3CC2)s1 | inconclusive: 19% |
| CCC1(CCC(C)C)C(=O)NC(=O)N=C1O (configuration not stated) | inconclusive: 14% |
| CC1=C2C(=O)C3C(CC=C4CC(O)CCC43C)C2CCC12OC1CC(C)CNC1C2C (configuration not stated) | inconclusive: 10% |
| Cn1nc(-c2ccccc2)cc1[C@H]1CN2CC[C@H]1C[C@@H]2CNS(=O)(=O)Cc1ccccc1 | inconclusive: 17% |
| CCOc1ccc(-c2cccc3c2CCNC3)nn1 | inconclusive: 12% |
| CC(=O)NCCNC(=O)[C@H]1CN2CCC1C[C@@H]2Cn1cc(-c2cccc(O)c2)nn1 (some centres not stated) | inactive |
| COc1ccc(-c2cc([C@H]3CN4CC[C@H]3C[C@@H]4CNC(=O)Nc3ccc(F)c(Cl)c3)n(C)n2)cc1OC | inconclusive: 19% |
| CCOc1ccc(CN2CCN(c3cccc(Cl)c3)CC2)cc1 | inconclusive: 11% |
| O=C(NCc1ccc(F)cc1)[C@H]1CN2CC[C@H]1C[C@@H]2Cn1cc(-c2cccc(O)c2)nn1 | inconclusive: 10% |

| Compound | inhibition |
| --- | --- |
| Cc1nn(-c2ccccc2)c([Se])c1C=NC1CCCCC1 | inconclusive: 17% |
| Cc1cccc(-n2c(/C=C3\C(=O)Nc4ccc(Br)cc43)nc3ccccc3c2=O)c1 | inconclusive: 20% |
| O=C(O)COCC(=O)N1C[C@@H]2C[C@H](C1)c1ccc(NC(=O)Cc3ccccc3)c(=O)n1C2 | inactive |
| COCC(=O)NC[C@H]1C[C@@H]2CCN1C[C@@H]2CN1CCN(c2ncccn2)CC1 | inactive |
| CC(C)c1ccc(CN2CCN(C)CC2)cc1 | inconclusive: 17% |
| CN1CC2(CCCN(Cc3cc(-c4ccccn4)no3)C2)OC1=O (configuration not stated) | inconclusive: 27% |
| Fc1ccc(N2CCN(C[C@H]3CN4CC[C@H]3C[C@@H]4CNC(=S)Nc3ccc(-n4cccn4)cc3)CC2)cc1 | inactive |
| CCSc1nc(CC(=O)N2CCN3CCNC(=O)C3C2)cs1 (configuration not stated) | inactive |
| COc1cccc(/C=C/c2nc3ccccc3c(=O)n2-c2ccccc2F)c1OC | inconclusive: 24% |
| O=C(NCCC1=CCCCC1)c1cn(CC2CCCO2)nn1 (configuration not stated) | inactive |
| CN(C)Cc1ccccc1-c1ccc2n(c1=O)C[C@H]1C[C@@H]2CN(C(=O)c2cnccn2)C1 | inconclusive: 19% |
| S=C(NCc1ccco1)NC[C@H]1C[C@@H]2CCN1C[C@@H]2CN1CCN(c2ncccn2)CC1 | inconclusive: 21% |
| COc1ccc(-c2cc([C@H]3CN4CC[C@H]3C[C@@H]4CNC(=O)NC(C)C)nc(C)n2)cc1OC | inconclusive: 14% |
| CN(C)Cc1cn(C[C@H]2C[C@@H]3CCN2C[C@@H]3C(=O)NC2CC2)nn1 | inconclusive: 18% |
| Cc1ccc(NC(=O)CN2C(=O)C(C)N=C(c3ccccc3)c3ccccc32)c(Cl)c1 (configuration not stated) | inactive |
| CC1N=C(c2ccccc2)c2ccccc2N(CC(=O)NCCC2=CCCCC2)C1=O (configuration not stated) | inconclusive: 10% |
| Cc1cc(N2CCNCC2)c2ccccc2n1 | inactive |
| Cc1c2ccncc2c(C)c2c1[nH]c1ccccc12 | inconclusive: 21% |
| CCOc1ccccc1N1CCN(Cc2ccccc2F)CC1 | inconclusive: 14% |
| CN1CCN(Cc2cccc(Br)c2)CC1 | inactive |
| COCCN(Cc1cccs1)C(=O)c1nn(C)c2ccccc12 | inactive |
| COc1ccc(C(c2c(O)c3ccccc3oc2=O)c2c(C)n(C)n(-c3ccccc3)c2=O)cc1 (configuration not stated) | inactive |

| Compound | inhibition |
| --- | --- |
| CN1C(=O)C(=Cc2cccn2-c2ccc([N+](=O)[O-])cc2)C(=O)N(C)C1=O | inconclusive: 27% |
| CN(C)Cc1cn(C[C@H]2C[C@@H]3CCN2C[C@@H]3C(=O)N2CCCC2)nn1 | inactive |
| Cc1[nH]c2c(C)cccc2c1CCN | inactive |
| COc1ccccc1N1CCN(Cc2ccc(Br)cc2)CC1 | inconclusive: 26% |
| CC(C)n1[nH]c(=O)c2c1NC(=O)CSC2c1ccc(OCc2ccccc2)cc1 (configuration not stated) | inconclusive: 17% |
| Cc1ccc(S(=O)(=O)NC[C@H]2C[C@@H]3CCN2C[C@@H]3CN2CCC(Cc3ccccc3)CC2)cc1 | inconclusive: 14% |
| O=[N+]([O-])c1cccc(CN2CCN(c3cccc(Cl)c3)CC2)c1 | inconclusive: 21% |
| COc1ccccc1CN1CCN(C)CC1 | inactive |
| COCCNC(=S)NC[C@H]1C[C@@H]2CCN1C[C@@H]2CN1CCC[C@@H]1COC | inactive |
| CCCCOC(=O)COc1cc(C)cc2oc(=O)c3c(c12)CCCC3 | inconclusive: 15% |
| O=C(Nc1ccc(=O)n2c1[C@@H]1C[C@@H](CN(C(=O)c3ccc(F)cc3)C1)C2)c1ccco1 | inactive |
| CCCS(=O)(=O)N1C[C@@H]2C[C@H](C1)c1c(-c3ccc(SC)cc3)ccc(=O)n1C2 | inconclusive: 12% |
| CCC(CC)c1cc([C@H]2CN3CC[C@H]2C[C@@H]3CNC(=O)COc2ccccc2)nc(-c2ccncc2)n1 | inconclusive: 18% |
| COc1cccc(CN2CCN(c3cccc(C)c3C)CC2)c1 | inconclusive: 13% |
| O=C(Nc1ccc(Cl)cc1)N1C[C@@H]2C[C@H](C1)c1c(-c3ccccc3F)ccc(=O)n1C2 | inconclusive: 14% |
| COc1ncc(CN2C[C@H]3C[C@H](O)[C@H](O)C[C@H]3C2)cn1 | inactive |
| O=C(NC1CC1)[C@H]1CN2CCC1C[C@@H]2Cn1cc(CCO)nn1 (some centres not stated) | inconclusive: 15% |
| CSc1ccc(-c2ccc(=O)n3c2[C@@H]2C[C@@H](CN(C(=O)c4ccc(F)cc4)C2)C3)cc1 | inconclusive: 15% |
| CN1CCN(Cc2ccc(Cl)c(Cl)c2)CC1 | inactive |
| CSc1ccc(-c2ccc3n(c2=O)C[C@H]2C[C@@H]3CN(C(=O)Nc3cccc(F)c3)C2)cc1 | inactive |
| N=C1c2ccccc2CN1CC(=O)c1ccc(Cl)cc1 | inconclusive: 11% |
